Test results from PubChem BioAssay AID1487 (National Center for Advancing Translational Sciences (NCATS), 2009).
Some of the results follow. Further columns of the screen follow, without active or inactive calls. The list favours compounds with an active or inconclusive main result. The note in brackets gives the kind of curve behind each potency; many fits are weak.

Assay: qHTS Assay for Modulators of Lamin A Splicing
Settings: HeLa LMNA splicing GFP/RFP minigene ratio, 48 h
In short: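 S3 HeLa stable clones carrying a lamin A-EGFP splicing minigene plus DsRed2 were seeded at 600 cells/well in Opti-MEM with 2% FBS, pin-dosed and incubated 48 h at 37°C. Acumen cytometry (488 nm) gave the GFP/RFP total-intensity ratio.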

[1] = measured here: GFP splicing reporter channel
[2] = measured here: RFP viability control channel

Compound	AC50 [1]	AC50 [2]
O=C(CSCc1nc2ccccc2[nH]1)N1CCN(c2ccc(F)cc2)CC1	3.98 µM [rising, full curve, poor fit]	6.31 µM [rising, full curve]
NNC(=O)c1ccc2[nH]c3c(c2c1)CCCC3		3.98 µM [rising, single point]
COC(=O)C1(C)CN(S(=O)(=O)c2ccc(C)cc2)c2cc(OC)ccc2C1=O (stereo unspecified)	14.1 µM [rising, partial curve, poor fit]	35.5 µM [rising, single point]
O=C(Nc1ccc2c(c1)OCCO2)c1cccc2nc3ccccc3nc12	2.51 µM [rising, partial curve]	
Cc1ccc(NC(=O)Nc2ccc(C(=O)N3CCOCC3)cc2)cc1		22.4 µM [rising, single point]
Cc1cccc(NCc2cc(Cl)cc(Cl)c2O)n1	35.5 µM [rising, single point]	35.5 µM [rising, single point]
O=C(Nc1ccc2nc(SCC(=O)N3CCCC3)sc2c1)c1ccc(Br)cc1	4.47 µM [falling, full curve, poor fit]	3.98 µM [falling, full curve, poor fit]
Cc1cccc(OCC(=O)OCc2cc(=O)n3nc(-c4cccs4)sc3n2)c1		0.00562 µM [falling, full curve, poor fit]
COc1ccc(C(=O)N2N=C(c3ccccc3)CC2(O)C(F)(F)F)cc1 (stereo unspecified)	35.5 µM [rising, single point]	35.5 µM [rising, single point]
NCC1CCC(C(=O)O)CC1 (stereo unspecified)	14.1 µM [falling, single point]	14.1 µM [falling, single point]
N#Cc1nc(COc2ccc(-c3ccccc3)cc2)oc1NCCCN1CCOCC1	11.2 µM [rising, single point]	12.6 µM [rising, single point]
CC(C)n1c(SCC(=O)Nc2ccccc2N2CCCCC2)nc2c1c(=O)n(C)c(=O)n2C		5.62 µM [rising, single point]
NC(=O)c1cc[n+](CC2=C(C(=O)[O-])N3C(=O)[C@@H](NC(=O)Cc4cccs4)[C@@H]3SC2)cc1	1.12 µM [falling, single point]	1.58 µM [falling, single point]
COc1ccc(Nc2nnc(SCC(=O)/C=C3/N(C)c4ccccc4C3(C)C)s2)cc1	22.4 µM [rising, single point]	17.8 µM [rising, partial curve]
O=C(CSc1nnc(Cc2csc(Nc3cccc(Cl)c3)n2)o1)N1CCc2ccccc21		14.1 µM [rising, partial curve]
Cc1ccc(Cl)cc1N1CCN(C(=O)C2CCN(c3nnc(-n4cccc4)s3)CC2)CC1	1.26 µM [rising, partial curve, poor fit]	2.51 µM [rising, full curve]
CNC(=S)N/N=C/c1cn(Cc2c(F)cccc2Cl)c2ccccc12	14.1 µM [rising, single point]	25.1 µM [rising, single point]

Single records, from the list above:
COC(=O)C1(C)CN(S(=O)(=O)c2ccc(C)cc2)c2cc(OC)ccc2C1=O (stereo unspecified) is listed as AC50 [1]: 14.1 µM [rising, partial curve, poor fit]; AC50 [2]: 35.5 µM [rising, single point]
O=C(CSCc1nc2ccccc2[nH]1)N1CCN(c2ccc(F)cc2)CC1 is listed as AC50 [1]: 3.98 µM [rising, full curve, poor fit]; AC50 [2]: 6.31 µM [rising, full curve]

Next part.

Compound	AC50 [1]	AC50 [2]
O=C(c1ccccc1Cl)N1N=C(c2ccc(Br)cc2)CC1c1nc2ccccc2[nH]1 (stereo unspecified)	25.1 µM [falling, single point]	35.5 µM [falling, single point]
CCOC(=O)c1cccc(NC(=O)c2cc3sccc3n2C)c1		22.4 µM [rising, single point]
COc1ccc(N2CCN(C(=O)Cc3nn(C)c(=O)c4ccccc34)CC2)cc1		35.5 µM [rising, single point]
CCC(=O)OCCNc1cc(SCCC(=O)OC)c2nonc2c1[N+](=O)[O-]	1 µM [falling, partial curve, poor fit]	
O=c1cc(-c2ccccc2)c2cc3c(cc2[nH]1)OCCO3		35.5 µM [rising, single point]
CCCCC(=O)NC(=S)Nc1ccc(NC(=O)C(C)C)c(OC)c1	0.0158 µM [falling, full curve]	
Cc1nnc(NC(=O)CSc2nccn2-c2ccc(Cl)cc2)s1	22.4 µM [falling, partial curve, poor fit]	39.8 µM [falling, partial curve, poor fit]
Cc1ccc(C)n1-c1ccc(C(=O)NC2CCN(Cc3ccccc3)CC2)cc1	15.8 µM [rising, partial curve]	14.1 µM [rising, partial curve]
Cc1ccc(CSCCNC(=O)c2ccc(N(C)S(=O)(=O)c3ccccc3)cc2)cc1		15.8 µM [rising, single point]
COc1cc([N+](=O)[O-])cc(/C=N/N(CCC#N)C(C)=O)c1O	8.91 µM [rising, partial curve, poor fit]	10 µM [rising, partial curve, poor fit]
O=c1oc2ccccc2n1CCc1ccccc1		15.8 µM [rising, single point]
COc1cc(C)c(Cl)cc1S(=O)(=O)NCc1ccncc1		2.82 µM [rising, full curve]
COC(=O)c1c(C)oc2ccc(NS(=O)(=O)c3cccs3)cc12	17.8 µM [rising, partial curve]	14.1 µM [rising, single point]
CC(=O)c1ccc(N2CCN(C(=O)c3ccc(OCc4c(C)noc4C)cc3)CC2)cc1	5.62 µM [rising, partial curve]	31.6 µM [rising, single point]
N#Cc1c(-c2ccccc2)nc(-c2ccncc2)[nH]c1=O	0.0631 µM [rising, full curve, poor fit]	
CCN(CC)S(=O)(=O)N1CCC(C(=O)NC2CCCC2)CC1		14.1 µM [falling, partial curve, poor fit]
Nc1nonc1-n1nnc(C(=O)N/N=C/c2cc(Br)ccc2O)c1CSC1=NCCS1		10 µM [rising, partial curve]
